Source: doi:10.1101/2023.03.12.532323
Results are given in words; binding and its absence hold for the method and conditions named. Binding seen in cells or lysates may run through a third protein. Some binding calls cover weakened binding; strength is not graded here. Sequences can lack the tags named with a protein.

How the values were obtained:
[1] = biological target: T1, Flag-tagged Cry2 C432A (mouse) (UniProt Q9R194); experiment: co-IP
T1 sequence: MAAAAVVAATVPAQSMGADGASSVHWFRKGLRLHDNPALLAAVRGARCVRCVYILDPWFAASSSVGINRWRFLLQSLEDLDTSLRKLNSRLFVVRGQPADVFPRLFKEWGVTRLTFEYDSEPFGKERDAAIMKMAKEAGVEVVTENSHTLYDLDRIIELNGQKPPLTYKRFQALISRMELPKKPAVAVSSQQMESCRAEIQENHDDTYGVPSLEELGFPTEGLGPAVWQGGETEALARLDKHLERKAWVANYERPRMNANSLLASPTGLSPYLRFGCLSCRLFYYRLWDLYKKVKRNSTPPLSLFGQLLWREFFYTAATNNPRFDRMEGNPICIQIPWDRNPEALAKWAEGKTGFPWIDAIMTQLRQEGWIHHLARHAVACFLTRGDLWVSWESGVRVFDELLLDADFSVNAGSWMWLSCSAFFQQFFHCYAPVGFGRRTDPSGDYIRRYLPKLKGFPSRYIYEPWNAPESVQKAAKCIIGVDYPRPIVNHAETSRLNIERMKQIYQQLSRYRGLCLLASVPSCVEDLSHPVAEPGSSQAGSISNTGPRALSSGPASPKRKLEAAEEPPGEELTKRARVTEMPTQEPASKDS

[2] = biological target: T2, Flag-tagged Cry2 (Cryptochrome 2), wild type (mouse) (UniProt Q9R194); experiment: co-IP
T2 sequence: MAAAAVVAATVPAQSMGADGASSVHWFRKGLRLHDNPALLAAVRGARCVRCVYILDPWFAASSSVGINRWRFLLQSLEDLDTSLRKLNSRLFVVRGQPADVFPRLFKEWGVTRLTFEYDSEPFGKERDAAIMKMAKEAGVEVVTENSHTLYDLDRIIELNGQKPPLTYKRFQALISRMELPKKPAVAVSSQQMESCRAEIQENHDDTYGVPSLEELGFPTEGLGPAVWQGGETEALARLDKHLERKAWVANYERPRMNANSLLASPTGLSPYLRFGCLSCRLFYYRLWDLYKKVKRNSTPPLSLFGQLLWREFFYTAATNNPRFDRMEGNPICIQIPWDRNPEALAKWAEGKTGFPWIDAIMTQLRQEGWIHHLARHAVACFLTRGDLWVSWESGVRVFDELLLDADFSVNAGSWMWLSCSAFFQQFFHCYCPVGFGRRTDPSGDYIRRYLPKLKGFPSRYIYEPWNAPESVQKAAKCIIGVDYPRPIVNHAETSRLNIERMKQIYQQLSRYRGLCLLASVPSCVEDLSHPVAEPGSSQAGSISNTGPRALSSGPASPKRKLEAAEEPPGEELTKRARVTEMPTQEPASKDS

B1: Myc-tagged Fbxl3 (protein, UniProt Q8C4V4 1-428)
chain: MKRGGRDSDQDSAEEGTAEKPKRPRTTQERSQPCDWGNLLQDIVLHVFKYLPLLDRAHASQVCRNWNQVFHMPDLWRCFEFELNQPATSYLKATHPELIKQIIKRHSNHLQYVSFKVDSSKESAEAACDILSQLVNCSLKTLGLISTARPSFMDLPKSHFISALTVVFVNSKSLSSLKIDDTPVDDPSLKVLVANNSDTLKLLKMSSCPHVSPAGILCVADQCHGLRELALNYHLLSDELLLALSSEKHVRLEHLRIDVVSENPGQTHFHTIQKSSWDAFIKHSPKVNLVMYFFLYEEEFDPFFRYEIPATHLYFGRSVSKDVLGRVGMTCPRLVELVVCANGLRPLDEELIRIAERCKNLSAIGLGECEVSCSAFVEFVKMCGGRLSQLSIMEEVLIPDQKYSLEQIHWEVSKHLGRVWFPDMMPTW
binding [1]: no binding
binding [2]: binds
